These are yes or no findings as the source states them, for the method shown. Some results given as binding are weak or reduced against the parent protein; the word gives no strength.
Target: T1, Clu-Δ(214–238) (tail mutant TL1) (human), P10909
T1 chain: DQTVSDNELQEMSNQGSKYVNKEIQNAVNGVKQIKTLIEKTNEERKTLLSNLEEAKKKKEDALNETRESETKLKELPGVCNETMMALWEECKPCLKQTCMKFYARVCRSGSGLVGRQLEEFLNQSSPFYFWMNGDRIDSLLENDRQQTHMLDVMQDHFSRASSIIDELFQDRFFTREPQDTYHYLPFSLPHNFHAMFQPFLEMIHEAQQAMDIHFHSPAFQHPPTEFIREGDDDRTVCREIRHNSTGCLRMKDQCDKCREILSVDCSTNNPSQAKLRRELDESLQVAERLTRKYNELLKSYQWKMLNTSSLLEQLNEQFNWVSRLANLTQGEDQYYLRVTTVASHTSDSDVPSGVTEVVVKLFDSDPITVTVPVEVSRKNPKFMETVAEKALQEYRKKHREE
Assay: SEC; 10 μM Clu in 20 mM MES-NaOH pH 6.5, HEPES-NaOH pH 7.5 or Tris-HCl pH 8.5, 100 mM NaCl, 1 mM EDTA, overnight or longer on ice; Superdex-200 Increase 3.2/300 at room temperature; monomers and dimers; both purified
Settings: remark: other sources report otherwise

- binding: binds
B1: Clu-Δ(214–238) (tail mutant TL1), P10909 (protein)
chain: DQTVSDNELQEMSNQGSKYVNKEIQNAVNGVKQIKTLIEKTNEERKTLLSNLEEAKKKKEDALNETRESETKLKELPGVCNETMMALWEECKPCLKQTCMKFYARVCRSGSGLVGRQLEEFLNQSSPFYFWMNGDRIDSLLENDRQQTHMLDVMQDHFSRASSIIDELFQDRFFTREPQDTYHYLPFSLPHNFHAMFQPFLEMIHEAQQAMDIHFHSPAFQHPPTEFIREGDDDRTVCREIRHNSTGCLRMKDQCDKCREILSVDCSTNNPSQAKLRRELDESLQVAERLTRKYNELLKSYQWKMLNTSSLLEQLNEQFNWVSRLANLTQGEDQYYLRVTTVASHTSDSDVPSGVTEVVVKLFDSDPITVTVPVEVSRKNPKFMETVAEKALQEYRKKHREE
modifications: here or on the partner: N-glycans at N86, N103, N145, N291, N354 and N374; N-glycans at N86, N103, N145, N291, N354 and N374

Source: PMC12527946
